Construct, isoform or probe ends are uncertain for at least one entry. Weaker means in comparison with the reference protein, sequence or condition of that experiment. Where a protein sequence is shown, tags need not be part of it.
Molecular target: T1, RBP45d (His-RBP45d) (UniProt Q8VXZ9)
T1 sequence (looked up, limits assumed): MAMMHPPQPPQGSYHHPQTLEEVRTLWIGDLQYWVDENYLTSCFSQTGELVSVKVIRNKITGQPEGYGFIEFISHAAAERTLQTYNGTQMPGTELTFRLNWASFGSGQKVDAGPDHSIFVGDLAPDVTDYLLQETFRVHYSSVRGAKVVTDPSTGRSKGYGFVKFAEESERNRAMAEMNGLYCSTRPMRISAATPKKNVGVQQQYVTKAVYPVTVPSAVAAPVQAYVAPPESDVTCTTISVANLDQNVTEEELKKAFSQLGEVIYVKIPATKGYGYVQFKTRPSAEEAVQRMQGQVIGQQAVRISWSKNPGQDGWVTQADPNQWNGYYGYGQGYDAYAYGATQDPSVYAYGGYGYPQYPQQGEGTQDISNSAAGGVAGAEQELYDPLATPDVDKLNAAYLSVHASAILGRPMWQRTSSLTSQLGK
Assay: competition with a labelled probe
Conditions: unlabeled vs Cy5-SOT5-IN7; REMSA; unlabeled competitor up to at least 6 uM; recombinant protein; protein details: His (pET51b)

“CUCAAUAUGGCAAACCGGGUAAAUC [SOT5-IN7-M3-NL]”: binds more weakly.
